In this test the target is Kappa-type opioid receptor (Homo sapiens, UniProt P41145).

The chains behind the UniProt entries cited, without tags or fusion partners. Where a name states a change or a piece, a line headed by the entry shows the natural chain unless it says otherwise.
UniProt P41145: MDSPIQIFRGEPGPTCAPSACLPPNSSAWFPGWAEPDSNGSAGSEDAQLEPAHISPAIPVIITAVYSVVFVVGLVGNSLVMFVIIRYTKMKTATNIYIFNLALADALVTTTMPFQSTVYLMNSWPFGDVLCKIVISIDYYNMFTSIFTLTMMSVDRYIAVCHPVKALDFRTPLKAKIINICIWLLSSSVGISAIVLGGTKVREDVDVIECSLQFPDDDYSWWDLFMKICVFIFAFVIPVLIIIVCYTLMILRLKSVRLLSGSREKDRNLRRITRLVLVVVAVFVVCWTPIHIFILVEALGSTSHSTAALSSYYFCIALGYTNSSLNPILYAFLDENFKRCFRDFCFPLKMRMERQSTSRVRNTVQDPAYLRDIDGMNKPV

The IC50 is the concentration that inhibits the measured activity by half.

In turn, `Cc1nc(-c2c(N3CCC(NC4CCOCC4)CC3)nc3c(C#N)cc(OC(F)(F)F)cc3c2C)no1` registered an IC50 greater than 100 nM.

(Values after ChEMBL document CHEMBL5727812, “Kappa opioid receptor antagonists and products and methods related thereto” (2020).)
